From publication PMC3114041, “Architectures of archaeal GINS complexes, essential DNA replication initiation factors” (BMC Biology, 2011)
These are yes or no findings as the source states them, for the method shown. Some entries that bind do so weakly or less than the wild type.

Target: Thermoplasma acidophilum GINS subunit (TacGins) (Thermoplasma acidophilum) (UniProt Q9HJC8)
Assay: negative-stain electron microscopy with single particle image analysis; 50 mM Tris-HCl pH 8.0, 40 mM NaCl, 5 μg/ml protein; 2% uranyl acetate; two-dimensional class averages compared with projections of the homology model of the tetramer; both purified

binding: binds
B1: Thermoplasma acidophilum GINS subunit (TacGins) (natural protein, UniProt Q9HJC8 1-233, looked up)
chain: MKPADIDKLISEIRTAIYAEQSHRKIIEIDPDIYRKVRAALSDLQAEASEYFQKQDIENYLTMNNRFQTLKRDFRSLFQRRFEKIVAKAIYDISGETLSLLTDEEKEFIEKIHNIITEEFESFIPKREEKNEARAEAQPAPADESPTAIADQKPQEEPQVVQDQHQPPAEIPSENIEIKKEDGRYVLVMITEDLPPIAQLDRNYSLHSNDLVYLPQDLASILAKRKVALVLDQ
notes: TacGins, conserved hypothetical protein of Thermoplasma acidophilum, gene Ta1042 cloned into pET21a; the homology model counts residues 1 to 233; also called Ta1042; source: E. coli BL21 codonPlus (DE3)-RIL, purified (heat 60°C, polyethyleneimine, HiTrap Phenyl, HiTrap Q)
